Test results published in US20080108632A1, “HCV PROTEASE INHIBITORS” (TaiGen Biotechnology Co., Ltd., priority 2006, published 2008).
Some entries share one result that the patent states for a list of compounds. At least one structure is not confirmed: it was looked up by name or label, or the drawing left a doubt.

Molecular target: T1, NS3/4A protease (Hepatitis C virus genotype 1a, UniProt P27958)
T1 construct: N-terminal His6-tagged-NS4A (21-32)-GSGS-NS3(3-181); made in house; host or cells: E. coli BL21 (DE3) pLysS
Experiment: Inhibition of NS3/4A protease, HPLC Microbore assay with substrate RET S1
Type: biochemical, HCV
Conditions: 2 nM NS3/4A protease, substrate RET S1, 30 minutes at 37° C.

Q: For C#CCN1C(=O)[C@H]2CCCN2C12C[C@@H](C(=O)NC(CCC)C(=O)C(=O)NC1CC1)N(C(=O)[C@@H](NC(=O)[C@@H](NC(=O)c1cnccn1)C1CCCCC1)C(C)(C)C)C2 (stereo partly drawn) [Compound 34, (5S,7a′R)-1-((S)-2-((S)-2-cyclohexyl-2-(pyrazine-2-carboxamido)acetamido)-3,3-dimethylbutanoyl)-N-(1-(cyclopropylamino)-1,2-dioxohexan-3-yl)-1′-oxo-2′-(prop-2-ynyl)hexahydrospiro[pyrrolidine-3,3′-pyrrolo[1,2-c]imidazole]-5-carboxamide], which “inhibition of NS3/4A protease activity” value is on record?
A: The value was “exhibited inhibition of NS3/4A protease activity”.

Q: How did the “inhibition of NS3/4A protease activity” value turn out when CCCC(NC(=O)[C@@H]1CC2(CN1C(=O)[C@@H](NC(=O)[C@@H](NC(=O)c1cnccn1)C1CCCCC1)C(C)(C)C)NC(=O)NC2=O)C(=O)C(=O)NC1CC1 (stereo partly drawn) [Compound 35, (8S)-7-((S)-2-((S)-2-cyclohexyl-2-(pyrazine-2-carboxamido)acetamido)-3,3-dimethylbutanoyl)-N-(1-(cyclopropylamino)-1,2-dioxohexan-3-yl)-2,4-dioxo-1,3,7-triazaspiro[4.4]nonane-8-carboxamide] was run?
A: The value was “exhibited inhibition of NS3/4A protease activity”.

Q: For C=C[C@@H]1C[C@]1(NC(=O)[C@@H]1CC2(CN1C(=O)[C@@H](NC(=O)[C@@H](NC(=O)c1cnccn1)C1CCCCC1)C(C)(C)C)N(CC)C(=O)[C@@H]1CCCN12)C(=O)O (stereo partly drawn) [Compound 36, (1R, 2S)-1-((5S, 7a′S)-1-((S)-2-((S)-2-cyclohexyl-2-(pyrazine-2-carboxamido)acetamido)-3,3-dimethylbutanoyl)-2′-ethyl-1′-oxohexahydrospiro[pyrrolidine-3,3′-pyrrolo[1,2-c]imidazole]-5-ylcarboxamido)-2-vinylcyclopropanecarboxylic acid], which “inhibition of NS3/4A protease activity” value is on record?
A: Its value is “exhibited inhibition of NS3/4A protease activity”.

Q: For C=C[C@@H]1C[C@]1(NC(=O)[C@@H]1CC2(CN1C(=O)[C@@H](NC(=O)[C@@H](NC(=O)c1cnccn1)C1CCCCC1)C(C)(C)C)N(CC)C(=O)[C@@H]1CCCN12)C(=O)NS(=O)(=O)c1ccccc1 (stereo partly drawn) [Compound 37, (5S, 7a′S)-1-((S)-2-((S)-2-cyclohexyl-2-(pyrazine-2-carboxamido)acetamido)-3,3-dimethylbutanoyl)-2′-ethyl-1′-oxo-N-((1R, 2S)-1-(phenylsulfonylcarbamoyl)-2-vinylcyclopropyl)hexahydrospiro[pyrrolidine-3,3′-pyrrolo[1,2-c]imidazole]-5-carboxamide], which “inhibition of NS3/4A protease activity” value is on record?
A: The value was “exhibited inhibition of NS3/4A protease activity”.

Q: For CCCC(NC(=O)[C@@H]1CC2(CN1C(=O)[C@@H](NC(=O)[C@@H](NC(=O)c1cnccn1)C1CCCCC1)C(C)(C)C)NC(=O)CS2)C(=O)C(=O)N[C@@H](C)c1ccccc1 (stereo partly drawn) [Compound 38, (8S)-7-((S)-2-((S)-2-cyclohexyl-2-(pyrazine-2-carboxamido)acetamido)-3,3-dimethylbutanoyl)-N-(1,2-dioxo-1-((S)-1-phenylethylamino)hexan-3-yl)-3-oxo-1-thia-4,7-diazaspiro[4.4]nonane-8-carboxamide], which “inhibition of NS3/4A protease activity” value is on record?
A: The value was “exhibited inhibition of NS3/4A protease activity”.

Q: CCCC(NC(=O)[C@@H]1CC2(CN1C(=O)[C@@H](NC(=O)[C@@H](NC(=O)c1cnccn1)C1CCCCC1)C(C)(C)C)SCC(=O)N2CC1CC1)C(=O)C(=O)N[C@@H](C)c1ccccc1 (stereo partly drawn) [Compound 39, (8S)-7-((S)-2-((S)-2-cyclohexyl-2-(pyrazine-2-carboxamido)acetamido)-3,3-dimethylbutanoyl)-4-(cyclopropylmethyl)-N-(1,2-dioxo-1-((S)-1-phenylethylamino)hexan-3-yl)-3-oxo-1-thia-4,7-diazaspiro[4.4]nonane-8-carboxamide] was tested. Which “inhibition of NS3/4A protease activity” value did it give?
A: The value was “exhibited inhibition of NS3/4A protease activity”.

Q: With CCCC(NC(=O)[C@@H]1CC2(CC(=O)c3ccccc3O2)CN1C(=O)[C@@H](NC(=O)[C@@H](NC(=O)c1cnccn1)C1CCCCC1)C(C)(C)C)C(=O)C(=O)NC1CC1 (stereo partly drawn) [Compound 40, (5′S)-1′-((S)-2-((S)-2-cyclohexyl-2-(pyrazine-2-carboxamido)acetamido)-3,3-dimethylbutanoyl)-N-(1-(cyclopropylamino)-1,2-dioxohexan-3-yl)-4-oxospiro[chroman-2,3′-pyrrolidine]-5′-carboxamide] as the compound, how does the “inhibition of NS3/4A protease activity” value read?
A: Its value is “exhibited inhibition of NS3/4A protease activity”.

Q: With CCCC(NC(=O)[C@@H]1CC2(CN1C(=O)[C@@H](NC(=O)[C@@H](NC(=O)c1cnccn1)C1CCCCC1)C(C)(C)C)N(CC)C(=O)[C@@H]1C[C@H](Oc3ccccc3)CN12)C(=O)C(=O)NC1CC1 (stereo partly drawn) [Compound 41, (5S, 6′S, 7a′S)-1-((S)-2-((S)-2-cyclohexyl-2-(pyrazine-2-carboxamido)acetamido)-3,3-dimethylbutanoyl)-N-(1-(cyclopropylamino)-1,2-dioxohexan-3-yl)-2′-ethyl-1′-oxo-6′-phenoxyhexahydrospiro[pyrrolidine-3,3′-pyrrolo[1,2-c]imidazole]-5-carboxamide] as the compound, how does the “inhibition of NS3/4A protease activity” value read?
A: The value was “exhibited inhibition of NS3/4A protease activity”.

Q: With CCCC(NC(=O)[C@@H]1CC2(CN1C(=O)[C@@H](NC(=O)[C@@H](NC(=O)c1cnccn1)C1CCCCC1)C(C)(C)C)N(CC)C(=O)[C@@H]1C[C@H](Oc3cccc(F)c3)CN12)C(=O)C(=O)NC1CC1 (stereo partly drawn) [Compound 42, (5S, 6′S, 7a′S)-1-((S)-2-((S)-2-cyclohexyl-2-(pyrazine-2-carboxamido)acetamido)-3,3-dimethylbutanoyl)-N-(1-(cyclopropylamino)-1,2-dioxohexan-3-yl)-2′-ethyl-6′-(3-fluorophenoxy)-1′-oxohexahydrospiro[pyrrolidine-3,3′-pyrrolo[1,2-c]imidazole]-5-carboxamide] as the compound, how does the “inhibition of NS3/4A protease activity” value read?
A: The value was “exhibited inhibition of NS3/4A protease activity”.

Q: CCCC(NC(=O)[C@@H]1CC2(CN1C(=O)[C@@H](NC(=O)[C@@H](NC(=O)c1cnccn1)C1CCCCC1)C(C)(C)C)N(CC)C(=O)[C@@H]1C[C@H](Oc3cccc(Cl)c3)CN12)C(=O)C(=O)NC1CC1 (stereo partly drawn) [Compound 43, (5S, 6′S, 7a′S)-6′-(3-chlorophenoxy)-1-((S)-2-((S)-2-cyclohexyl-2-(pyrazine-2-carboxamido)acetamido)-3,3-dimethylbutanoyl)-N-(1-(cyclopropylamino)-1,2-dioxohexan-3-yl)-2′-ethyl-1′-oxohexahydrospiro[pyrrolidine-3,3′-pyrrolo[1,2-c]imidazole]-5-carboxamide] was tested. Which “inhibition of NS3/4A protease activity” value did it give?
A: The value was “exhibited inhibition of NS3/4A protease activity”.

Q: CCCC(NC(=O)[C@@H]1CC2(CN1C(=O)[C@@H](NC(=O)[C@@H](NC(=O)c1cnccn1)C1CCCCC1)C(C)(C)C)N(CC)C(=O)[C@@H]1C[C@H](Oc3ccc4c(c3)OCO4)CN12)C(=O)C(=O)NC1CC1 (stereo partly drawn) [Compound 44, (5S, 6′S, 7a′S)-6′-(benzo[d][1,3]dioxol-5-yloxy)-1-((S)-2-((S)-2-cyclohexyl-2-(pyrazine-2-carboxamido)acetamido)-3,3-dimethylbutanoyl)-N-(1-(cyclopropylamino)-1,2-dioxohexan-3-yl)-2′-ethyl-1′-oxohexahydrospiro[pyrrolidine-3,3′-pyrrolo[1,2-c]imidazole]-5-carboxamide] was tested. Which “inhibition of NS3/4A protease activity” value did it give?
A: Its value is “exhibited inhibition of NS3/4A protease activity”.

Q: CCCC(NC(=O)[C@@H]1CC2(CN1C(=O)[C@@H](NC(=O)[C@@H](NC(=O)c1cccn1C)C1CCCCC1)C(C)(C)C)N(CC)C(=O)[C@@H]1C[C@H](Oc3cccc(Cl)c3)CN12)C(=O)C(=O)NC1CC1 (stereo partly drawn) [Compound 45, (5S, 6′S, 7a′S)-6′-(3-chlorophenoxy)-1-((S)-2-((S)-2-cyclohexyl-2-(1-methyl-1H-pyrrole-2-carboxamido)acetamido)-3,3-dimethylbutanoyl)-N-(1-(cyclopropylamino)-1,2-dioxohexan-3-yl)-2′-ethyl-1′-oxohexahydrospiro[pyrrolidine-3,3′-pyrrolo[1,2-c]imidazole]-5-carboxamide] was tested. Which “inhibition of NS3/4A protease activity” value did it give?
A: The value was “exhibited inhibition of NS3/4A protease activity”.

Q: With CCCC(NC(=O)[C@@H]1CC2(CN1C(=O)[C@@H](NC(=O)[C@@H](NC(=O)c1scnc1C)C1CCCCC1)C(C)(C)C)N(CC)C(=O)[C@@H]1C[C@H](Oc3cccc(Cl)c3)CN12)C(=O)C(=O)NC1CC1 (stereo partly drawn) [Compound 46, N-((1S)-2-((2S)-1-((5S, 6′S, 7a′S)-6′-(3-chlorophenoxy)-5-(1-(cyclopropylamino)-1,2-dioxohexan-3-ylcarbamoyl)-2′-ethyl-1′-oxohexahydrospiro[pyrrolidine-3,3′-pyrrolo[1,2-c]imidazole]-1-yl)-3,3-dimethyl-1-oxobutan-2-ylamino)-1-cyclohexyl-2-oxoethyl)-4-methylthiazole-5-carboxamide] as the compound, how does the “inhibition of NS3/4A protease activity” value read?
A: The value was “exhibited inhibition of NS3/4A protease activity”.

Q: With CCCC(NC(=O)[C@@H]1CC2(CN1C(=O)[C@@H](NC(=O)[C@@H](NC(=O)c1cnccn1)C1CCCCC1)C(C)(C)C)Sc1ccccc1C(=O)N2C)C(=O)C(=O)NC1CC1 (stereo partly drawn) [Compound 47, (5′S)-1′-((S)-2-((S)-2-cyclohexyl-2-(pyrazine-2-carboxamido)acetamido)-3,3-dimethylbutanoyl)-N-(1-(cyclopropylamino)-1,2-dioxohexan-3-yl)-3-methyl-4-oxo-3,4-dihydrospiro[benzo[e][1,3]thiazine-2,3′-pyrrolidine]-5-carboxamide] as the compound, how does the “inhibition of NS3/4A protease activity” value read?
A: Its value is “exhibited inhibition of NS3/4A protease activity”.

Q: Which “inhibition of NS3/4A protease activity” value does the source give for CCCC(NC(=O)[C@@H]1CC2(CN1C(=O)[C@@H](NC(=O)[C@@H](NC(=O)c1cnccn1)C1CCCCC1)C(C)(C)C)Sc1ccc(F)cc1C(=O)N2C)C(=O)C(=O)NC1CC1 (stereo partly drawn) [Compound 48, (5′S)-1′-((S)-2-((S)-2-cyclohexyl-2-(pyrazine-2-carboxamido)acetamido)-3,3-dimethylbutanoyl)-N-(1-(cyclopropylamino)-1,2-dioxohexan-3-yl)-6-fluoro-3-methyl-4-oxo-3,4-dihydrospiro [benzo [e][1,3]thiazine-2,3′-pyrrolidine]-5′-carboxamide] here?
A: The value was “exhibited inhibition of NS3/4A protease activity”.
